Source: the supplement of paper PMC10849652
Some of the results follow.

Chains of the proteins cited; added tags and fusions are not shown. Lines headed by an entry give the natural chain unless they say otherwise; changes in a name come on top.
UniProt Q9NSI2: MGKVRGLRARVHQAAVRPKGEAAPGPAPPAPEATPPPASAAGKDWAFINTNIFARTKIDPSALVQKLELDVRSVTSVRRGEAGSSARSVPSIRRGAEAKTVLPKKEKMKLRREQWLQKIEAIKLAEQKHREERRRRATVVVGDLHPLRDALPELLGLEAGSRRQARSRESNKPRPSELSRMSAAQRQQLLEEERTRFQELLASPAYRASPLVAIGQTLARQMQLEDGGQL
UniProt Q96E09: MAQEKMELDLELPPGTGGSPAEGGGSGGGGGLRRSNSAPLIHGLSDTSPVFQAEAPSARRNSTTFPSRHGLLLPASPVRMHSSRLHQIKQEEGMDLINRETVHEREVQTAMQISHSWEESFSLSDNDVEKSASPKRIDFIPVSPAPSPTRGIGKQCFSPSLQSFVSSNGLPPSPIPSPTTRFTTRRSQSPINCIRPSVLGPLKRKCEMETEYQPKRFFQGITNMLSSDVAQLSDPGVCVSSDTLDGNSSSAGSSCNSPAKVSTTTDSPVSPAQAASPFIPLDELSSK
UniProt Q9NWS6: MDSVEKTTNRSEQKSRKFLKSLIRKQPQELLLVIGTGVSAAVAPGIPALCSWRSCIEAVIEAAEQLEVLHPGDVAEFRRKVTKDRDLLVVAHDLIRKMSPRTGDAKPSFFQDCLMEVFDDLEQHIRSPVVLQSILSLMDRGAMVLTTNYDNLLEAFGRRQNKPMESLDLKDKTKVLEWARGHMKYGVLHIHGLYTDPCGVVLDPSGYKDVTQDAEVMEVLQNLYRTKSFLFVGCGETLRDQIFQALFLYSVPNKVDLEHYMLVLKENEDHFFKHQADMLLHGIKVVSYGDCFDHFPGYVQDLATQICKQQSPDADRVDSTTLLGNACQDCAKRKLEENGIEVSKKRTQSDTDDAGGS
UniProt Q8IYI6: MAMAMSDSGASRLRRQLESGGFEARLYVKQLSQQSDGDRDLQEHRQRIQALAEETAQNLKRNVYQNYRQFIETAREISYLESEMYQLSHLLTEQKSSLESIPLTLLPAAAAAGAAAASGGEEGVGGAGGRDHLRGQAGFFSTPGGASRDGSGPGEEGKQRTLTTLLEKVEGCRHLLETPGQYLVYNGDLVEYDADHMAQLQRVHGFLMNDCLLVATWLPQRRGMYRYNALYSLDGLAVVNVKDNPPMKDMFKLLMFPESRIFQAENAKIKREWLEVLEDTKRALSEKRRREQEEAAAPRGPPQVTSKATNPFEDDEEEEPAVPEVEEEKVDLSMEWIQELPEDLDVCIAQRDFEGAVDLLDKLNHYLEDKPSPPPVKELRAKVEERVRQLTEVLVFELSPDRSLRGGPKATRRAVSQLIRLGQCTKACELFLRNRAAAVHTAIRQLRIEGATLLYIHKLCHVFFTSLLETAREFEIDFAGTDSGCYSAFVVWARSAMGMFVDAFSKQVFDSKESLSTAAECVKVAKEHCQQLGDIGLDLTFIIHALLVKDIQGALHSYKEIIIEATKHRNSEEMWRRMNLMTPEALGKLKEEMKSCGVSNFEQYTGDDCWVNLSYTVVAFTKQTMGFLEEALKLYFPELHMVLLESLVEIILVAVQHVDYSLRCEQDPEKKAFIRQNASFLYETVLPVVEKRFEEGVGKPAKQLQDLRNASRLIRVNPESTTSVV
UniProt Q01844: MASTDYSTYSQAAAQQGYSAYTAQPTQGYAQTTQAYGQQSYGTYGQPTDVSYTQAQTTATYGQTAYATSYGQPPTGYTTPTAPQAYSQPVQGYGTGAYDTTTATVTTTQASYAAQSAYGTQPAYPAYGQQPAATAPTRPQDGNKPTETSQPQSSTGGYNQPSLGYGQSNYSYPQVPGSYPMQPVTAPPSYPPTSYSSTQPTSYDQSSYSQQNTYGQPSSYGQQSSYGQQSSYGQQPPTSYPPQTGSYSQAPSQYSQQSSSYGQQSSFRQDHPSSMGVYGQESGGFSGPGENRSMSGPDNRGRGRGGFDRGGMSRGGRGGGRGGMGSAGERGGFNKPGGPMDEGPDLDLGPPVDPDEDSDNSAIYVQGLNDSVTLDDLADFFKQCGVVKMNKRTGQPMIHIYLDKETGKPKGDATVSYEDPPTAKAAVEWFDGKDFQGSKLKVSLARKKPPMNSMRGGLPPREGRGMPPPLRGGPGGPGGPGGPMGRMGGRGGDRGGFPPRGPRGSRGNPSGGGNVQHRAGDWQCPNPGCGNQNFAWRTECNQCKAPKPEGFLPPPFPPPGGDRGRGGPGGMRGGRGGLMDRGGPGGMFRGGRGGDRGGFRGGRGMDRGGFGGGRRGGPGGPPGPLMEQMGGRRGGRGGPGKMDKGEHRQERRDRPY
UniProt Q9Y624, whole entry, looked up, stated change not applied: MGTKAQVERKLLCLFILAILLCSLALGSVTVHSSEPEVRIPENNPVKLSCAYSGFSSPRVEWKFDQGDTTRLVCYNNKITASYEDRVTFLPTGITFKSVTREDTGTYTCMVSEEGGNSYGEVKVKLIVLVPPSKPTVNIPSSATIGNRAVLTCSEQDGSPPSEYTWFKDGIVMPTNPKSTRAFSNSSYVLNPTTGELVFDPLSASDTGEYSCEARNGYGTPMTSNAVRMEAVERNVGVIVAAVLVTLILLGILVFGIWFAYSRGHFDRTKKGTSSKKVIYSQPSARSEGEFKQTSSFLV
UniProt O00471: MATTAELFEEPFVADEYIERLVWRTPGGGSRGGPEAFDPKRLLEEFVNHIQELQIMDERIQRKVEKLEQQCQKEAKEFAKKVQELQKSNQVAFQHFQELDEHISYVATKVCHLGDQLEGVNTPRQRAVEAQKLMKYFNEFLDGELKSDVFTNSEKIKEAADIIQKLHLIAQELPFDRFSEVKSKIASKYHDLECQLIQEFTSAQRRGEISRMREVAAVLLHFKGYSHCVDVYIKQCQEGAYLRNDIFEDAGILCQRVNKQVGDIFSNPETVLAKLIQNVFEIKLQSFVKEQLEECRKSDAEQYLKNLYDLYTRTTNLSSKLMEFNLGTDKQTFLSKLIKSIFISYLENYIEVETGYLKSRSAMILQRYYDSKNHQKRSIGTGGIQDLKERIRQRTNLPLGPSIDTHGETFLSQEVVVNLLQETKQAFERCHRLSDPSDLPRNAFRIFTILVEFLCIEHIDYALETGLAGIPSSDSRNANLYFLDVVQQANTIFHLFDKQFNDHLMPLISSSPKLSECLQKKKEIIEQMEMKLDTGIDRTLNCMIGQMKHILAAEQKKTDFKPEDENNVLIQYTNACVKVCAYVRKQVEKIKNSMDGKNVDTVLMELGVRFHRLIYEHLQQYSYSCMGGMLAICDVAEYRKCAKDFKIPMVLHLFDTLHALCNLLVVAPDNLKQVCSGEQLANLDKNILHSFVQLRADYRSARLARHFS
UniProt Q14674: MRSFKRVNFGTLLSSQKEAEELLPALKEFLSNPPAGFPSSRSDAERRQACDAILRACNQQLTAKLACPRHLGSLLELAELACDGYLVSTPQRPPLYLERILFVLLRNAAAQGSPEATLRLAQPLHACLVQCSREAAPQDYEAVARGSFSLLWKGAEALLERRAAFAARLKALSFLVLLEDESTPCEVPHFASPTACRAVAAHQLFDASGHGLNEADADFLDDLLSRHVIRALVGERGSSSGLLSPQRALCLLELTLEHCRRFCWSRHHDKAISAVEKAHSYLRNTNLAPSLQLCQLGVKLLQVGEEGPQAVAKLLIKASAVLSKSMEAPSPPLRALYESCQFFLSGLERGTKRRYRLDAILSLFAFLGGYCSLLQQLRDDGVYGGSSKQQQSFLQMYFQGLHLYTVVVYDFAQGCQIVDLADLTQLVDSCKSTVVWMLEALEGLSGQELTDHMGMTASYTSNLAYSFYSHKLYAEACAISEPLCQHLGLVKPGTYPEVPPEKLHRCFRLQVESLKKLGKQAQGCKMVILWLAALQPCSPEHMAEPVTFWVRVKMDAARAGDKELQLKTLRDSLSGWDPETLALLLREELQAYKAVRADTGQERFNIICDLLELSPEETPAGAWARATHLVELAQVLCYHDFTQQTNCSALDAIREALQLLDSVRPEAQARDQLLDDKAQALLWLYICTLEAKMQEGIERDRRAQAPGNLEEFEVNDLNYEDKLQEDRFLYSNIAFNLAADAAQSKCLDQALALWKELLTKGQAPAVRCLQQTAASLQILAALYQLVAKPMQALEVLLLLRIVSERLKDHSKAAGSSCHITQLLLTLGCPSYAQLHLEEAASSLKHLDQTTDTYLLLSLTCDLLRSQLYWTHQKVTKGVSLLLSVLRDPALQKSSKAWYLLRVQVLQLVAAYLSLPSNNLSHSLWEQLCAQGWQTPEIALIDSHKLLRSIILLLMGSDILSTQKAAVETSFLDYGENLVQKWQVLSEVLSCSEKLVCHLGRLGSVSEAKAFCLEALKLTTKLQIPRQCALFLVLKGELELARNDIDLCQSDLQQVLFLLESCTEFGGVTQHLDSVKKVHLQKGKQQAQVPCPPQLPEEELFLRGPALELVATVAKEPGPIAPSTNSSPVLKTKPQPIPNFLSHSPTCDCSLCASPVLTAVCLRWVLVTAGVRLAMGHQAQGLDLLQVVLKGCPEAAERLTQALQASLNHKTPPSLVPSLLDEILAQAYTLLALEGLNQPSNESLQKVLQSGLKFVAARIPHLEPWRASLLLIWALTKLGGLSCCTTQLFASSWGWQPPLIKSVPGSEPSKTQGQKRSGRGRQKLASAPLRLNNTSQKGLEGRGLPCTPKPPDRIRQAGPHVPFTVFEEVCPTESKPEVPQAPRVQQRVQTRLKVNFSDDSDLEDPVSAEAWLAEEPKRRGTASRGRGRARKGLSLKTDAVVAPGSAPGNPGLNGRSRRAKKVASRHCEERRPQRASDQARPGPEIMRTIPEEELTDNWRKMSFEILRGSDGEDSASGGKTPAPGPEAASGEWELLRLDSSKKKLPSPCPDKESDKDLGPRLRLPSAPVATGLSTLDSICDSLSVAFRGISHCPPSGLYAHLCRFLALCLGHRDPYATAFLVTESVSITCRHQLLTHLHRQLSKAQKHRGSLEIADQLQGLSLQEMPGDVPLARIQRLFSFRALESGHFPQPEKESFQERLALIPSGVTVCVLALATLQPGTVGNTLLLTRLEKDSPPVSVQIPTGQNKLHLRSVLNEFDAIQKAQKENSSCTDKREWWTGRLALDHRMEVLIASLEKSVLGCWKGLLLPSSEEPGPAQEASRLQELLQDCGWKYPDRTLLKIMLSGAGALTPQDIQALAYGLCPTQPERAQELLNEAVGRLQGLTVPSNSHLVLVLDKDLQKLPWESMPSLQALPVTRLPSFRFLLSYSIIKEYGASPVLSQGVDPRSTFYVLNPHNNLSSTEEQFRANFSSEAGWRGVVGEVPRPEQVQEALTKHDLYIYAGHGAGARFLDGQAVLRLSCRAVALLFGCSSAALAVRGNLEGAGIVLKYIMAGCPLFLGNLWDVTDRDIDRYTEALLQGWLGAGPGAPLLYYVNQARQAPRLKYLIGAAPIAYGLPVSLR
UniProt Q9H098: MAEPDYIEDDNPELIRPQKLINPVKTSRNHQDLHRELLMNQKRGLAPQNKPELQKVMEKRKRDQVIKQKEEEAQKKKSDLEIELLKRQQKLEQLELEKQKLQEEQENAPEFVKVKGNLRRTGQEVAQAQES
UniProt Q9GZU8: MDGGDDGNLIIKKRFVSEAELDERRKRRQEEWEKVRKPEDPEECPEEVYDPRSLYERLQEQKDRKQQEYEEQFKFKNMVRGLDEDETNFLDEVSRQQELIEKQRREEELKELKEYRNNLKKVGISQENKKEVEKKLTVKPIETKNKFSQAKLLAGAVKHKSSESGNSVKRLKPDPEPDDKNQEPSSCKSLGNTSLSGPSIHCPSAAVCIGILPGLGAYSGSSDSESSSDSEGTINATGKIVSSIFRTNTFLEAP
UniProt O75477: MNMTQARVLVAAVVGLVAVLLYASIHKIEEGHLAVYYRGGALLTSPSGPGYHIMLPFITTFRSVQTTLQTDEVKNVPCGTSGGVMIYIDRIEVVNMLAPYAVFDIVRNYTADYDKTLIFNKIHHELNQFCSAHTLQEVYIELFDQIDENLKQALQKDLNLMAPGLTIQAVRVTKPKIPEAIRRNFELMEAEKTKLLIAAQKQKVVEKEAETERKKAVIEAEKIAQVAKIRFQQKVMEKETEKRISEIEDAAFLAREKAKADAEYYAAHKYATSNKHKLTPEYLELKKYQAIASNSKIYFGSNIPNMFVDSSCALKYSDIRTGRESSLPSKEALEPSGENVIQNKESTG
UniProt O94905: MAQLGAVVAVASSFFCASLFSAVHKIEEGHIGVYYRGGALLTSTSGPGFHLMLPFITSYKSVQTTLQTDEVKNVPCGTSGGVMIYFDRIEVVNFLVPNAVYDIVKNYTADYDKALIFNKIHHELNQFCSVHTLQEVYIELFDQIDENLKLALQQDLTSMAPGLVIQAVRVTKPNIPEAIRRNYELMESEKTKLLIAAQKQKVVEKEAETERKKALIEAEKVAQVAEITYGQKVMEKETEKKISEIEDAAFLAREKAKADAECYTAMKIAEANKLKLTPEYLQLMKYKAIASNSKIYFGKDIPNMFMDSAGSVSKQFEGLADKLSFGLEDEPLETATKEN

Columns and labels:
Assay in all cases: log2 fold change, soluble protein after heating vs DMSO (PISA); higher = thermal stabilisation; K562 lysate, 10 uM; active = over 0.2 and 3.5 SD of the protein, either way, in both replicates (recomputed)
ibrutinib = compound: C=CC(=O)N1CCC[C@@H](n2nc(-c3ccc(Oc4ccccc4)cc3)c3c(N)ncnc32)C1 [ibrutinib]
How it was run: (§1)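 Dounce homogenisation of K562 pellets in PBS pH 7.4 with 1 mM MgCl2 produced a crude extract, used at 1 mg/mL protein. Exposure to 10 μM compound lasted 30 min, and aliquots were then heated for 3 min across 48°C-58°C, pooled and brought to 0.5% NP-40 at 4°C. The supernatant after 21,000xg for 90 min was quantified by TMTpro 16plex LC-MS/MS with channel sums equalised. Duplicate values are given as log-two fold change in thermal stability relative to solvent controls.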

[1] = compound: CC(=O)c1cnc2ccc(-c3cc(Cl)c(O)c(Cl)c3)nc2c1N[C@H]1CC[C@H](CN(C)C)CC1
How it was run: as §1

ralimetinib = compound: CC(C)(C)Cn1c(N)nc2ccc(-c3[nH]c(C(C)(C)C)nc3-c3ccc(F)cc3)nc21 [ralimetinib]
How it was run: as §1

[2] = compound: CC(C)(O)CC(=O)NCCn1ccc2ncnc(Nc3ccc(Oc4cccc(C(F)(F)F)c4)c(Cl)c3)c21
How it was run: as §1

[3] = compound: CC(C)C1=C2N=C(C=C(N2N=C1)NCC3=CC=CC=C3)NCCCCCCN
How it was run: as §1

[4] = compound: CC1=C(C(CC(=O)N1)C2=CC=C(C=C2)C(F)(F)F)C(=O)NC3=C(C=C4C(=C3)C=NN4)F
How it was run: as §1

[5] = compound: CC1=C(C2=C(C=C1)C(=O)C3=CC=CC=C3N2CCCN)C
How it was run: as §1

[6] = compound: CC1=C(C=C(C=C1)NC(=O)C2=CC(=CC=C2)C(C)(C)C#N)NC3=CC4=C(C=C3)N=CN(C4=O)C
How it was run: as §1

[7] = compound: CC1=C(C=C(C=C1)NC(=O)C2=CC(=CC=C2)N(C)C)NC(=O)C3=CC=C(C=C3)O
How it was run: as §1

[8] = compound: CC1=CC=C(C=C1)SC2=C3C=C(SC3=CN=C2)C(=O)N
How it was run: as §1

vemurafenib = compound: CCCS(=O)(=O)Nc1ccc(F)c(C(=O)c2c[nH]c3ncc(-c4ccc(Cl)cc4)cc23)c1F [vemurafenib]
How it was run: as §1

[9] = compound: CCCS(=O)(=O)Nc1ccc(F)c(C(=O)c2c[nH]c3ncc(Cl)cc23)c1F
How it was run: as §1

barasertib = compound: CCN(CCCOc1ccc2c(Nc3cc(CC(=O)Nc4cccc(F)c4)[nH]n3)ncnc2c1)CCOP(=O)(O)O [barasertib]
How it was run: as §1

[10] = compound: CC[C@@H]1C(=O)N(C)c2cnc(Nc3ccc(C(=O)NC4CCN(C)CC4)cc3OC)nc2N1C1CCCC1
How it was run: as §1

volasertib = compound: CC[C@@H]1C(=O)N(C)c2cnc(Nc3ccc(C(=O)N[C@H]4CC[C@H](N5CCN(CC6CC6)CC5)CC4)cc3OC)nc2N1C(C)C [volasertib]
How it was run: as §1

[11] = compound: CCn1c(C(=O)N(C2CC2)C2CC2)cc2c3c(ncn3C)c(Nc3cc(C)n(C)n3)nc21
How it was run: as §1

[12] = compound: CCn1cc(-c2ccnc3[nH]c(-c4cccc(CN(C)C)c4)cc23)c(-c2ccc(NC(=O)N(C)C)cc2)n1
How it was run: as §1

[13] = compound: CN1CCC(CNc2ccc3ncc(-c4cccc(OC(F)(F)F)c4)n3n2)CC1
How it was run: as §1

saracatinib = compound: CN1CCN(CCOc2cc(OC3CCOCC3)c3c(Nc4c(Cl)ccc5c4OCO5)ncnc3c2)CC1 [saracatinib]
How it was run: as §1

sotrastaurin = compound: CN1CCN(c2nc(C3=C(c4c[nH]c5ccccc45)C(=O)NC3=O)c3ccccc3n2)CC1 [sotrastaurin]
How it was run: as §1

Measured: log2 fold change

F5 (UniProt P12259)
inactive: ibrutinib 0.027 | [1] -0.021 | ralimetinib 0.014 | [2] 0.15 | [3] -0.011 | [4] 0.026 | [5] 0.035 | [6] 0.006 | [7] -0.018 | [8] -0.043 | vemurafenib -0.011 | [9] -0.039 | barasertib 0.035 | [10] 0.049 | volasertib -0.011 | [11] 0.021 | [12] -0.05 | [13] -0.006 | saracatinib -0.104 | sotrastaurin -0.014

FAM207A (UniProt Q9NSI2)
inactive: ibrutinib 0.014 | [1] 0.027 | ralimetinib 0.003 | [2] -0.03 | [3] -0.042 | [4] 0.015 | [5] 0.006 | [6] -0.009 | [7] -0.005 | [8] 0.028 | vemurafenib -0.016 | [9] 0.01 | barasertib -0.087 | [10] 0.061 | volasertib -0.006 | [11] -0.044 | [12] -0.021 | [13] -0.021 | saracatinib -0.007 | sotrastaurin -0.013

FAM122A (UniProt Q96E09)
inactive: ibrutinib 0.017 | [1] -0.031 | ralimetinib -0.007 | [2] -0.009 | [3] -0.015 | [4] -0.05 | [5] -0.016 | [6] 0 | [7] 0.04 | [8] -0.034 | vemurafenib -0.045 | [9] 0.013 | barasertib -0.063 | [10] 0.092 | volasertib -0.025 | [11] -0.102 | [12] -0.026 | [13] 0.005 | saracatinib 0.014 | sotrastaurin 0.036

FAM118A (UniProt Q9NWS6)
inactive: ibrutinib -0.024 | [1] 0.01 | ralimetinib 0.041 | [2] -0.052 | [3] -0.01 | [4] -0.004 | [5] -0.052 | [6] 0.015 | [7] 0.014 | [8] -0.004 | vemurafenib -0.013 | [9] 0.011 | barasertib 0.018 | [10] -0.017 | volasertib -0.009 | [11] -0.031 | [12] -0.135 | [13] 0.077 | saracatinib 0.063 | sotrastaurin 0.025

Reprinted from above (two entries):
F5 (UniProt P12259)
inactive: ibrutinib 0.027 | [1] -0.021 | ralimetinib 0.014 | [2] 0.15 | [3] -0.011 | [4] 0.026 | [5] 0.035 | [6] 0.006 | [7] -0.018 | [8] -0.043 | vemurafenib -0.011 | [9] -0.039 | barasertib 0.035 | [10] 0.049 | volasertib -0.011 | [11] 0.021 | [12] -0.05 | [13] -0.006 | saracatinib -0.104 | sotrastaurin -0.014

FAM207A (UniProt Q9NSI2)
inactive: ibrutinib 0.014 | [1] 0.027 | ralimetinib 0.003 | [2] -0.03 | [3] -0.042 | [4] 0.015 | [5] 0.006 | [6] -0.009 | [7] -0.005 | [8] 0.028 | vemurafenib -0.016 | [9] 0.01 | barasertib -0.087 | [10] 0.061 | volasertib -0.006 | [11] -0.044 | [12] -0.021 | [13] -0.021 | saracatinib -0.007 | sotrastaurin -0.013

(continued)

EXOC8 (UniProt Q8IYI6)
inactive: ibrutinib -0.013 | [1] 0.012 | ralimetinib 0.021 | [2] -0.02 | [3] 0.018 | [4] 0.011 | [5] -0.014 | [6] -0.022 | [7] 0.022 | [8] 0.002 | vemurafenib 0.001 | [9] 0.026 | barasertib 0.033 | [10] -0.009 | volasertib -0.049 | [11] -0.008 | [12] 0.025 | [13] -0.073 | saracatinib 0.008 | sotrastaurin 0.012

EWSR1 isoform 5 (UniProt Q01844)
inactive: ibrutinib -0.016 | [1] -0.026 | ralimetinib -0.017 | [2] -0.011 | [3] 0.038 | [4] -0.012 | [5] 0.016 | [6] -0.023 | [7] -0.033 | [8] 0 | vemurafenib 0.033 | [9] -0.023 | barasertib -0.013 | [10] 0.039 | volasertib 0.045 | [11] -0.006 | [12] -0.019 | [13] 0.021 | saracatinib -0.017 | sotrastaurin 0.037

FADS1, A0A0A0MR51
inactive: ibrutinib 0.011 | [1] 0.178 | ralimetinib 0.094 | [2] 0.094 | [3] -0.003 | [4] -0.032 | [5] 0.002 | [6] 0.113 | [7] -0.08 | [8] -0.115 | vemurafenib -0.041 | [9] 0.145 | barasertib -0.018 | [10] 0.02 | volasertib -0.187 | [11] -0.062 | [12] -0.021 | [13] -0.078 | saracatinib -0.026 | sotrastaurin -0.037

ESYT2 (UniProt H7BXI1)
inactive: ibrutinib 0.035 | [1] -0.022 | ralimetinib 0.003 | [2] -0.039 | [3] -0.04 | [4] 0.046 | [5] 0.05 | [6] 0.015 | [7] -0.025 | [8] -0.044 | vemurafenib -0.047 | [9] -0.044 | barasertib 0.046 | [10] -0.065 | volasertib -0.036 | [11] -0.009 | [12] 0.037 | [13] -0.068 | saracatinib 0.033 | sotrastaurin -0.003

F11R (UniProt Q9Y624)
inactive: ibrutinib 0.033 | [1] -0.005 | ralimetinib -0.002 | [2] -0.057 | [3] -0.012 | [4] -0.008 | [5] -0.006 | [6] 0.025 | [7] -0.011 | [8] -0.043 | vemurafenib 0.012 | [9] 0.001 | barasertib -0.016 | [10] -0.026 | volasertib 0.009 | [11] -0.01 | [12] -0.133 | [13] 0.118 | saracatinib 0.03 | sotrastaurin -0.014

EXOC5 (UniProt O00471)
inactive: ibrutinib -0.015 | [1] 0.012 | ralimetinib 0.04 | [2] -0.003 | [3] -0.016 | [4] 0.008 | [5] 0.003 | [6] -0.024 | [7] 0.041 | [8] -0.013 | vemurafenib 0.033 | [9] 0.03 | barasertib 0.044 | [10] -0.036 | volasertib -0.081 | [11] 0.02 | [12] 0.068 | [13] -0.115 | saracatinib 0.044 | sotrastaurin 0.022

ESPL1 (UniProt Q14674)
inactive: ibrutinib -0.076 | [1] -0.335 | ralimetinib 0.002 | [2] 0.01 | [3] 0.04 | [4] -0.005 | [5] -0.036 | [6] -0.04 | [7] 0.076 | vemurafenib 0.049 | [9] 0.204 | barasertib 0.054 | [10] 0.039 | volasertib 0.09 | [11] -0.002 | [12] -0.047 | [13] -0.012 | saracatinib -0.065 | sotrastaurin -0.023
active: [8] -0.371

FAM107B isoform 2 (UniProt Q9H098)
inactive: ibrutinib -0.075 | [1] 0.035 | ralimetinib 0.033 | [2] -0.074 | [3] 0.008 | [4] -0.032 | [5] -0.013 | [6] 0 | [7] 0.022 | [8] 0.003 | vemurafenib -0.043 | [9] 0.032 | barasertib 0.01 | [10] -0.09 | volasertib -0.006 | [11] -0.117 | [12] 0.161 | [13] 0.015 | saracatinib -0.053 | sotrastaurin -0.024

FAM192A (UniProt Q9GZU8)
inactive: ibrutinib -0.004 | [1] 0.008 | ralimetinib 0.021 | [2] 0.055 | [3] -0.014 | [4] 0.02 | [5] -0.005 | [6] -0.019 | [7] 0 | [8] 0.016 | vemurafenib -0.034 | [9] 0 | barasertib -0.006 | [10] -0.021 | volasertib 0.024 | [11] 0.055 | [12] 0.005 | [13] 0.009 | saracatinib -0.014 | sotrastaurin 0.03

ERLIN1 (UniProt O75477)
inactive: ibrutinib 0.005 | [1] 0.034 | ralimetinib -0.011 | [2] 0.038 | [3] -0.007 | [4] 0.044 | [5] 0.005 | [6] -0.052 | [7] -0.008 | [8] 0.012 | vemurafenib 0.01 | [9] 0.013 | barasertib 0.008 | [10] -0.037 | volasertib -0.029 | [11] 0.033 | [12] 1.01 | [13] -0.059 | saracatinib 0.041 | sotrastaurin -0.023

ERLIN2 (UniProt O94905)
active: [12] 0.384
inactive: ibrutinib 0.033 | [1] -0.028 | ralimetinib 0.026 | [2] -0.023 | [3] -0.023 | [4] -0.012 | [5] -0.031 | [6] -0.016 | [7] 0.066 | [8] -0.014 | vemurafenib -0.003 | [9] 0.012 | barasertib 0.021 | [10] 0.05 | volasertib -0.029 | [11] 0.012 | [13] -0.135 | saracatinib 0.008 | sotrastaurin -0.008

EXOSC7 (UniProt Q15024)
inactive: ibrutinib 0.022 | [1] -0.014 | ralimetinib -0.001 | [2] -0.018 | [3] -0.01 | [4] 0.011 | [5] -0.064 | [6] 0.022 | [7] -0.039 | [8] -0.01 | vemurafenib 0.001 | [9] 0.01 | barasertib -0.011 | [10] 0.029 | volasertib 0.045 | [11] -0.004 | [12] -0.126 | [13] 0.087 | saracatinib 0.008 | sotrastaurin -0.037
